Data source: PubChem BioAssay AID1224830 (NIAID, 2016)
This is one part, drawn at random, of about 18,000 reagents tested. Over the whole deposit, about 2,900 (16%) are marked active. 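Calls are made per well; low scores hint the gene aids the LPS response, high scores that it dampens it.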 Repeated entries: four replicate wells of each siRNA pool. Reagent sequences are not shown.

Purpose: 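Genes whose knock-down alters the TNF-alpha reporter response to LPS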 (primary screen)
Cells: human THP-1 monocytic leukaemia cells, TNF dual-luciferase reporter clone, PMA-differentiated to macrophage-like cells
Reagents: siRNA pool against human genes, 50 nM
Time to read-out: LPS for 4 h, given about 3 days after siRNA transfection
Treatment: bacterial LPS (TLR4 ligand), 10 ng/ml
Detection: 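Ratio of firefly to renilla light, scaled to the plate median and expressed as a robust z-score per replicate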
Scale: TNF reporter robust z-score: higher = stronger TNF reporter response to LPS
Hit rule: 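Each well counts as active if its z-score is over 2.8 or under -1.5; controls are left without a call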

no.	Target gene	TNF reporter robust z-score	Outcome
1	RUNDC3A	0.14	inactive
2	RUNDC3A	0.69	inactive
3	RUNDC3A	0.09	inactive
4	RUNDC3A	0.44	inactive
5	SNX14	-0.63	inactive
6	SNX14	0.93	inactive
7	SNX14	-0.64	inactive
8	SNX14	-0.79	inactive
9	STAG3	-0.18	inactive
10	STAG3	0.22	inactive
11	STAG3	0.13	inactive
12	STAG3	-0.05	inactive
13	NIFK	-1.26	inactive
14	NIFK	-1.07	inactive
15	NIFK	-1.16	inactive
16	NIFK	-0.43	inactive
17	ETFDH	-0.33	inactive
18	ETFDH	0.78	inactive
19	ETFDH	0.55	inactive
20	ETFDH	0.28	inactive
21	CD72	0.84	inactive
22	CD72	0.2	inactive
23	CD72	0.89	inactive
24	CD72	-0.78	inactive
25	SLC12A1	0.06	inactive
26	SLC12A1	0.24	inactive
27	SLC12A1	-0.14	inactive
28	SLC12A1	-0.02	inactive
29	DMPK	-0.14	inactive
30	DMPK	-0.8	inactive
31	DMPK	-1.51	active
32	DMPK	-0.44	inactive
33	IQCF3	-1.09	inactive
34	IQCF3	-1.45	inactive
35	IQCF3	-2.03	active
36	IQCF3	-1.36	inactive
37	IFIT5	-0.34	inactive
38	IFIT5	0.03	inactive
39	IFIT5	-1.07	inactive
40	IFIT5	-0.63	inactive
41	BAG5	-1.36	inactive
42	BAG5	-0.61	inactive
43	BAG5	-0.27	inactive
44	BAG5	-0.88	inactive
45	CD5	-0.77	inactive
46	CD5	0.06	inactive
47	CD5	0.74	inactive
48	CD5	1.71	inactive
49	CMPK2	-0.65	inactive
50	CMPK2	0.02	inactive
51	CMPK2	-0.49	inactive
52	CMPK2	-0.44	inactive
53	CHMP4C	-0.32	inactive
54	CHMP4C	0.05	inactive
55	CHMP4C	-0.47	inactive
56	CHMP4C	1.36	inactive
57	DLEU7	-0.89	inactive
58	DLEU7	-0.03	inactive
59	DLEU7	-0.18	inactive
60	DLEU7	-0.01	inactive
61	SIGLEC1	0.88	inactive
62	SIGLEC1	3.1	active
63	SIGLEC1	0.87	inactive
64	SIGLEC1	1.83	inactive
65	GRK3	-0.49	inactive
66	GRK3	1.25	inactive
67	GRK3	0.56	inactive
68	GRK3	0.52	inactive
69	ALX4	-0.21	inactive
70	ALX4	-0.05	inactive
71	ALX4	0.52	inactive
72	ALX4	0.39	inactive
73	DNAH2	-1.93	active
74	DNAH2	-1.21	inactive
75	DNAH2	-0.92	inactive
76	DNAH2	-0.61	inactive
77	ZNF256	-0.64	inactive
78	ZNF256	0.06	inactive
79	ZNF256	-0.67	inactive
80	ZNF256	-0.61	inactive
81	RAB7B	1.5	inactive
82	RAB7B	2.07	inactive
83	RAB7B	0.24	inactive
84	RAB7B	1.32	inactive
85	IL17D	3.02	active
86	IL17D	3.1	active
87	IL17D	1.24	inactive
88	IL17D	2.27	inactive
89	SPMIP6	0.71	inactive
90	SPMIP6	-0.1	inactive
91	SPMIP6	0.42	inactive
92	SPMIP6	0.57	inactive
93	HYLS1	0.08	inactive
94	HYLS1	2.79	inactive
95	HYLS1	1.99	inactive
96	HYLS1	1.23	inactive
97	BRD2	-1.6	active
98	BRD2	-1.77	active
99	BRD2	-0.28	inactive
100	BRD2	0.76	inactive
101	OR5AS1	-0.58	inactive
102	OR5AS1	-0.53	inactive
103	OR5AS1	-0.37	inactive
104	OR5AS1	0.05	inactive
105	IQUB	0.12	inactive
106	IQUB	-0.17	inactive
107	IQUB	0.33	inactive
108	IQUB	0.82	inactive
109	WDR45	2.14	inactive
110	WDR45	2.89	active
111	WDR45	3.06	active
112	WDR45	3.42	active
